Results taken from PMC10359602.
Construct, isoform or probe ends are uncertain for at least one entry. For some assays here: At least one verdict was read from the data and is not stated in words by the source.

Protein sequences, listed by entry. Tags and fused reporters are not part of them. Lines headed by an entry give the natural chain unless they say otherwise; changes in a name come on top.
UniProt P0CAW2: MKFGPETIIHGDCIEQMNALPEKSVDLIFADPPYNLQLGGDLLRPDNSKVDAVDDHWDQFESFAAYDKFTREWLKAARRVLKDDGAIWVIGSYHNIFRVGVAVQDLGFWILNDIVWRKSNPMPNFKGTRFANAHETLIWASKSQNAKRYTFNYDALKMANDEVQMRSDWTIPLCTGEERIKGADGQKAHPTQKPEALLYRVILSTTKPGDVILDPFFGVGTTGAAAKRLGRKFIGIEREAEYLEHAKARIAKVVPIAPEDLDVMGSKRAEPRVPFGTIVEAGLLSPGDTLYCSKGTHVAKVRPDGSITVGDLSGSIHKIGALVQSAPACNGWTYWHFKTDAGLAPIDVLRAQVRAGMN

Assays:
[1] = target: CcrM W332Y (Caulobacter crescentus) (UniProt P0CAW2); assay: fluorescence anisotropy; conditions: 30 uM SAH, Hill h = 0.9, apparent Kd, above tested range 0-1000 nM, N6-methyl-A at position 14 (5' to 3') of strand 2 (hemimethylated), Anisotropy: 10 nM FAM-DNA, 0-1000 nM protein, 100 mM HEPES, 1 mM EDTA, 20 mM NaCl, pH 8, room temperature, 20 min, recombinant protein, protein details: His-tag implied (HisTrap purification), label: 5' 6-FAM on strand 1
[2] = target: CcrM WT (Caulobacter crescentus) (UniProt P0CAW2); assay: pyrrolo-dC fluorescence kinetics; conditions: SAM in excess, strand separation observed; pyrrolo-dC at position 15 of strand 1 (written C); N6-methyl-A at position 14 (5' to 3') of strand 2; recombinant protein; protein details: His-tag implied (HisTrap purification); label: pyrrolo-dC

Row | Sequence | Kd [1] | binding result [2]
1 | TCACTGTACTCTGACTCGCCTGACATGAC (double strand) [C1-FAM] | 1180 nM | –
2 | TCACTGTACTCTGACTCGCCTGACATGAC (double strand) [P1] | – | binds
